The values below come from the supplement of paper PMC10398353.

Structures can show the parent of a compound that is named as a salt. ± gives the standard deviation of the averaged measurements. The list shows a part of the results. Single values of this set are uncertain.

This assay deals with Salmonella enterica serovar Typhimurium ST313 D23580. As to the kind of experiment: normalized bacterial growth (OD600 20 h minus 0 h, interquartile-mean normalized) (fraction of plate interquartile mean); higher = more bacterial growth (less inhibition). The conditions noted are these: LPM (pH 5.8, low phosphate, low Mg2+), concentration: 10 µM, temperature: 37 °C.
`CC(=O)SCC(Cc1ccccc1)C(=O)NCC(=O)OCc1ccccc1` (stereo not given) [Racecadotril]: the normalized bacterial growth is 1.02.

`O=C(O)CCCC[C@@H]1SC[C@@H]2NC(=O)N[C@@H]21`: the normalized bacterial growth turned out to be 1.23.

Regarding `O=C(O)CCCC[C@@H]1SC[C@@H]2NC(=O)N[C@@H]21` [Biotin], the normalized bacterial growth stood at 1.07.

`CCOC(=O)Nc1ccc(NCc2ccc(F)cc2)nc1N` [Flupirtine maleate] showed a normalized bacterial growth of 0.79.

`C[C@@]1(O)CCOC(=O)C1` ["Mevalonic-D, L acid lactone"]: the normalized bacterial growth came to 1.02.

With `COCC(=O)Nc1c(I)c(C(=O)NCC(O)CO)c(I)c(C(=O)N(C)CC(O)CO)c1I` (stereo not given) [Iopromide], the normalized bacterial growth turned out to be 1.02.

For `CC1COc2c(N3CCN(C)CC3)c(F)cc3c(=O)c(C(=O)O)cn1c23` (stereo not given) [Ofloxacin], the normalized bacterial growth stood at 0.0196.

Turning to `COc1c2c(nc3ccccc13)OC(C(C)(O)CO)C2` (stereo not given), the normalized bacterial growth turned out to be 1.02.

`Cn1cnc([N+](=O)[O-])c1Sc1ncnc2[nH]cnc12` returned a normalized bacterial growth of 1.07.

`Cn1cnc([N+](=O)[O-])c1Sc1ncnc2[nH]cnc12` [Azathioprine] showed a normalized bacterial growth of 0.888 ± 0.15.

`CC(C)C(=O)Nc1ccc([N+](=O)[O-])c(C(F)(F)F)c1` [Flutamide] had a normalized bacterial growth of 0.837.

`CC(=O)OCC[N+](C)(C)C` had a normalized bacterial growth of 1.14.

Turning to `CC1(C)CCC2=C(O1)c1ccccc1C(=O)C2=O`, the normalized bacterial growth came out at 1.09.

Consider `OCCN1C[C@H](O)[C@@H](O)[C@H](O)[C@H]1CO`, for which the normalized bacterial growth was determined as 1.05.

The compound `CC(=O)O[C@@H]1CC2C(C)(C)C(=O)CC[C@]2(C)C2CC[C@]3(C)C(=CC(=O)O[C@H]3c3ccoc3)[C@@]21C` (stereo not given in full) gave a normalized bacterial growth of 0.63.

`CC(=O)O[C@H]1C[C@@H](OC(C)=O)C(C)(C)C2CC(=O)[C@]3(C)C(CC[C@@]4(C)[C@H](c5ccoc5)OC(=O)[C@H]5O[C@]543)[C@]21C` (stereo not given in full) came in with a normalized bacterial growth of 0.884.

`O=C(O)c1nc2cc(Cl)c(Cl)cc2nc1O` returned a normalized bacterial growth of 1.05.

In turn, `O=C(O)Cc1ccccc1Nc1c(Cl)cccc1Cl` had a normalized bacterial growth of 1.01.

In turn, `O=C(O)Cc1ccccc1Nc1c(Cl)cccc1Cl` [Diclofenac sodium] yielded a normalized bacterial growth of 1.12.

As to `O=c1cc(-c2cc(O)c(O)c(O)c2)oc2cc(O)cc(O)c12`, the normalized bacterial growth turned out to be 1.14.

`CN1CCN(CCCN2c3ccccc3Sc3ccc(S(=O)(=O)N(C)C)cc32)CC1` [Thioproperazine dimesylate]: the normalized bacterial growth is 0.967.

`C[C@@H]1O[C@@H](Oc2c(-c3ccc(O)c(O)c3)oc3cc(O)cc(O)c3c2=O)[C@H](O)[C@H](O)[C@H]1O` displayed a normalized bacterial growth of 0.976 ± 0.091.

In turn, `CC(=O)Oc1cc(C(F)(F)F)ccc1C(=O)O` [Triflusal] returned a normalized bacterial growth of 1.14.

With `N=c1ccn2c(n1)O[C@H]1[C@H](O)[C@@H](CO)O[C@H]12`, the normalized bacterial growth amounted to 1.09.

Compound `N=c1ccn2c(n1)O[C@H]1[C@H](O)[C@@H](CO)O[C@H]12` [Ancitabine hydrochloride] came in with a normalized bacterial growth of 1.21.
